{"sequences": {"note": "Chains of the proteins cited; added tags and fusions are not shown. Residues count along the entry.", "UniProt Q99JW5, 24-315": "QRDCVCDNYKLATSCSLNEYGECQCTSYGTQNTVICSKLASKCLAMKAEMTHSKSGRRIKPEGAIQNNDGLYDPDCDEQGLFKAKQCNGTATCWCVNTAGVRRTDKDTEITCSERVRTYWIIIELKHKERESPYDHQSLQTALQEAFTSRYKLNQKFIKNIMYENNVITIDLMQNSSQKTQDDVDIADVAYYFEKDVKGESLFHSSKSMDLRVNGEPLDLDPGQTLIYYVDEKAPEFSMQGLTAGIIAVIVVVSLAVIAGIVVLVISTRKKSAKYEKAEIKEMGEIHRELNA", "UniProt P16422, 24-314": "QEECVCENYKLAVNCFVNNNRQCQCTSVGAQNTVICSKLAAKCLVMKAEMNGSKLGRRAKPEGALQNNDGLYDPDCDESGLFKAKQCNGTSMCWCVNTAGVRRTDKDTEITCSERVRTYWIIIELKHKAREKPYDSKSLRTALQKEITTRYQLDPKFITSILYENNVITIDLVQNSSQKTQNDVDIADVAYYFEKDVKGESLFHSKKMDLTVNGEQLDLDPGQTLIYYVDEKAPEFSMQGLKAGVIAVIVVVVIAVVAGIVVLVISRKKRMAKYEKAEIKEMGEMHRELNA"}, "source": "patent US20170275629", "key": {"[1]": {"molecular_target": "EpCAM (ESA/mCD326) (Mus musculus) (UniProt Q99JW5)", "assay": "flow cytometry", "conditions": "2'-F pyrimidines; not taken up by EpCAM-high mouse 4T1 cells nor by 67NR; protein on the cell surface; protein details: endogenous on 4T1 cells; label: 5'-Cy3 in uptake assays"}, "[2]": {"molecular_target": "EpCAM (CD326/ESA) (Homo sapiens) (UniProt P16422)", "assay": "binding assay", "conditions": "2'-F pyrimidines; CITED Shigdar et al. 2011; label: 5'-Cy3 in uptake assays"}, "[3]": {"molecular_target": "EpCAM (CD326/ESA) (Homo sapiens) (UniProt P16422)", "assay": "activity in cells", "conditions": "2'-F pyrimidines, 3'-dTdT, correlates with EpCAM level, protein on the cell surface, variant of EpCAM aptamer (19 nt), dose not given here"}, "[4]": {"molecular_target": "EpCAM (CD326/ESA) (Homo sapiens) (UniProt P16422)", "assay": "flow cytometry", "conditions": "2'-F pyrimidines; 3'-dTdT; 24 h uptake by EpCAM+ BPLER and MB468, not by EpCAM- BPE; protein on the cell surface; label: Alexa647 or Cy3 at 3' end of antisense strand; variant of EpCAM aptamer (19 nt)"}}, "note": "pKd: −log10 of the molar value. For some assays here: Results from cells or extracts need not show a direct contact. For some assays here: Negatives hold for the conditions tested. For some assays here: Construct, isoform or probe ends are uncertain for at least one entry.", "data": [{"sequence": "GCGACUGGUUACCCGGUCG [EpCAM aptamer (19 nt)]", "values": [{"measurement": "binding result", "setting": "[1]", "result": "no binding"}, {"measurement": "pKd", "setting": "[2]", "result": 7.92}]}, {"sequence": "GCGACUGGUUACCCGGUCGUUGCUGGAGAACCUCAUGCUGTT / CAGCAUGAGGUUCUCCAGCTT [AKT1 EpCAM-AsiC]", "values": [{"measurement": "functional effect of the aptamer", "setting": "[3]; AKT1 knockdown only in EpCAM-bright lines", "result": "active"}]}, {"sequence": "GCGACUGGUUACCCGGUCGUUUGGCUACGUCCAGGAGCGCATT / UGCGCUCCUGGACGUAGCCTT [GFP EpCAM-AsiC]", "values": [{"measurement": "binding result", "setting": "[4]", "result": "binds"}]}, {"sequence": "GCGACUGGUUACCCGGUCGUUUUGAAGAAGAUCACCCUCCUUATT / UAAGGAGGGUGAUCUUCUUCATT [PLK1 EpCAM-AsiC]", "values": [{"measurement": "functional effect of the aptamer", "setting": "[3]; reduced proliferation of EpCAM+ basal-A/luminal lines only", "result": "active"}]}]}
